Test results from publication PMC7449970.
These are yes or no findings as the source states them, for the method shown. In cells and extracts the contact can be indirect. Tags and fused reporters may be left off the sequences shown.

Sequences of proteins named here, by UniProt entry; tags and fusion partners are left off. A change or cut given only in a name is not applied to a line headed by its entry.
UniProt Q8NBS9: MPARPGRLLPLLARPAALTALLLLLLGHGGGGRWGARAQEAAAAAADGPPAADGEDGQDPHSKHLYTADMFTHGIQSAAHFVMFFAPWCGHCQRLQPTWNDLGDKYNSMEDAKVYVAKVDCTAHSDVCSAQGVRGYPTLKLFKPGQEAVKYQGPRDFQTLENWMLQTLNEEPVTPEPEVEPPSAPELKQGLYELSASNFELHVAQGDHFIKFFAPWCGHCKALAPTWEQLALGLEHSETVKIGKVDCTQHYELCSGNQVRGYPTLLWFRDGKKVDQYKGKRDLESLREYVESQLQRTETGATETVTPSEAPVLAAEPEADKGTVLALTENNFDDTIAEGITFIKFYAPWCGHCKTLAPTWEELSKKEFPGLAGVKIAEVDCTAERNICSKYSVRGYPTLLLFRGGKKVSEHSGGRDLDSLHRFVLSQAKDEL

Target: T1, human TGFBR1-Myc-Flag-tagged (human) (UniProt P36897)
T1 sequence: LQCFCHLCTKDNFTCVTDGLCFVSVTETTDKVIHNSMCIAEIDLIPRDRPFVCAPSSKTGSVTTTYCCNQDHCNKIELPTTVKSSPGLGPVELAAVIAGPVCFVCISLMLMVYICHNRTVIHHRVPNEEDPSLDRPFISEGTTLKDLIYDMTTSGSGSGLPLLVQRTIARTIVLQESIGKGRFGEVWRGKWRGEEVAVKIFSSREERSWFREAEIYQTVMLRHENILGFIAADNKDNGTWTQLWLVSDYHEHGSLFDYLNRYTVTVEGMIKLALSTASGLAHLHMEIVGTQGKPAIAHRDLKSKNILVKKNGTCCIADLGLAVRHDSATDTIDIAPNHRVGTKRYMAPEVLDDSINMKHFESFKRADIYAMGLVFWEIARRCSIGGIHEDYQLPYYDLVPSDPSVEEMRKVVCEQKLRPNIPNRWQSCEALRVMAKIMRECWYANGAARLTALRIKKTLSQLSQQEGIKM
Assay: co-IP; lysates of NIH-3T3 fibroblasts transfected with mRNAs for 4 h; IP with anti-Flag or mouse IgG isotype control on protein G magnetic beads, and IP of WT or mutant TXNDC5 (TXNDC5 or HA); immunoblot

binding: no binding
Substance: HA-tagged mutant TXNDC5-AAA (from UniProt Q8NBS9)
